Laboratory results as given in patent US20140162952A1.
No constants are given. Whether binding was seen depends on the method and setting. In cells and extracts the contact can be indirect. Some entries that bind do so weakly or less than the wild type.

Protein sequences, listed by entry. Tags and fused reporters are not part of them. Lines headed by an entry give the natural chain unless they say otherwise; changes in a name come on top.
UniProt P03372: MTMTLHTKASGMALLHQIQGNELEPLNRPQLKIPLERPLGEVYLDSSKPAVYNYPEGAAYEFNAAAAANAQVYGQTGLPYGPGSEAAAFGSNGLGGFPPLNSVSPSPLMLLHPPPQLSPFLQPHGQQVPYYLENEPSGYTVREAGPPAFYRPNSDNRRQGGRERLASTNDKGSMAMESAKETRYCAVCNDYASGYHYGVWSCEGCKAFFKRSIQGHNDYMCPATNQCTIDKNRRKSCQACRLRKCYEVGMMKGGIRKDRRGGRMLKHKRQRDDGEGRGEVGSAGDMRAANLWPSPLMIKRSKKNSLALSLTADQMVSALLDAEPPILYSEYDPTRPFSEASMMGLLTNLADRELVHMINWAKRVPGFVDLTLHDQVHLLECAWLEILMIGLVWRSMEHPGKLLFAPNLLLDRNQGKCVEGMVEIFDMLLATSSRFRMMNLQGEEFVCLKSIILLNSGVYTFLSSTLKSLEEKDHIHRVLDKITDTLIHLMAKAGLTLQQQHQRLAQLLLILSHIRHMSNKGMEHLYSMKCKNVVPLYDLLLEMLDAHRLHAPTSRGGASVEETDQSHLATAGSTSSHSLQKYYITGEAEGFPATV

What was measured:
[1] = molecular target: estrogen receptor α (ERα) (human) (UniProt P03372); assay: anti-ERα co-IP from the cytoplasm fraction of MCF-7 cells, 24 hr, 10 nM E2 and/or 10 µM Peptide
[2] = molecular target: estrogen receptor α (ERα) (human) (UniProt P03372); assay: anti-ERα co-IP from KPL-3C cells, 24 h, 10 nM E2 and/or 10 µM Peptide
[3] = molecular target: estrogen receptor α (ERα) (human) (UniProt P03372); assay: anti-ERα co-IP from the cytoplasm fraction of MCF-7 cells, 24 h, 10 µM Peptide alone, 10 nM E2 alone or both

Measured: binding

B1: Shc (protein, human, UniProt P29353 1-583, looked up)
chain: MDLLPPKPKYNPLRNESLSSLEEGASGSTPPEELPSPSASSLGPILPPLPGDDSPTTLCSFFPRMSNLRLANPAGGRPGSKGEPGRAADDGEGIVGAAMPDSGPLPLLQDMNKLSGGGGRRTRVEGGQLGGEEWTRHGSFVNKPTRGWLHPNDKVMGPGVSYLVRYMGCVEVLQSMRALDFNTRTQVTREAISLVCEAVPGAKGATRRRKPCSRPLSSILGRSNLKFAGMPITLTVSTSSLNLMAADCKQIIANHHMQSISFASGGDPDTAEYVAYVAKDPVNQRACHILECPEGLAQDVISTIGQAFELRFKQYLRNPPKLVTPHDRMAGFDGSAWDEEEEEPPDHQYYNDFPGKEPPLGGVVDMRLREGAAPGAARPTAPNAQTPSHLGATLPVGQPVGGDPEVRKQMPPPPPCPGRELFDDPSYVNVQNLDKARQAVGGAGPPNPAINGSAPRDLFDMKPFEDALRVPPPPQSVSMAEQLRGEPWFHGKLSRREAEALLQLNGDFLVRESTTTPGQYVLTGLQSGQPKHLLLVDPEGVVRTKDHRFESVSHLISYHMDNHLPIISAGSELCLQQPVERKL
binds: [1] | [2] | [3]
